The source of these data is PMC9095880, “AIMP2-DX2 provides therapeutic interface to control KRAS-driven tumorigenesis” (Nature Communications, 2022).

No constants are given. Whether binding was seen depends on the method and setting. For part of these data: In cells and extracts the contact can be indirect.

In experiment [1] the target is T1, 15N-labeled DX2 51-251 (C136S, C222S) (human) (UniProt Q13155).
T1 sequence (chain, 15N-labeled): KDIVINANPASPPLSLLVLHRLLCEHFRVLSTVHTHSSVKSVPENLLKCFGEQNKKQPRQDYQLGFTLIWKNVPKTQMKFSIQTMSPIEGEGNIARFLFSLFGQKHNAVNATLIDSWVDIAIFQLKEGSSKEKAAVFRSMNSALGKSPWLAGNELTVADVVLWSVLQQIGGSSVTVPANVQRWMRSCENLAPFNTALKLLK
Description: NMR titration; 1H-15N TROSY of 0.3 mM 15N-DX2 51-251 (C136S, C222S) with and without 3.0 mM peptide; 20 mM Bis-Tris pH 6.0, 100 mM NaCl, 100 mM glycine, 1 mM DTT, 1 mM PMSF; 298 K; both purified.

The target of a further experiment is GFP-KRAS4B (UniProt P01116). Nature of the experiment: co-IP; co-precipitation of E3 ligases with GFP-KRAS4B in 293T cells; cellular binding of KRAS4A or 4B to Smurf2 with or without DX2.

KKKRKSLAKRIRERC [RALA HVR peptide]: the binding result in experiment [1] is “no binding (tested: 3.0 mM)”.

Take RKLNPPDESGPGCMSCKC [HRAS HVR peptide]: the binding entry in experiment [1] is recorded as “no binding (tested: 3.0 mM)”.

B1: RING-finger and CHY-zinc-finger domain-containing 1 (RCHY1) (enzyme, UniProt Q96PM5 1-261)
chain: MAATAREDGASGQERGQRGCEHYDRGCLLKAPCCDKLYTCRLCHDNNEDHQLDRFKVKEVQCINCEKIQHAQQTCEECSTLFGEYYCDICHLFDKDKKQYHCENCGICRIGPKEDFFHCLKCNLCLAMNLQGRHKCIENVSRQNCPICLEDIHTSRVVAHVLPCGHLLHRTCYEEMLKEGYRCPLCMHSALDMTRYWRQLDDEVAQTPMPSEYQNMTVDILCNDCNGRSTVQFHILGMKCKICESYNTAQAGGRRISLDQQ
For B1, the binding result with GFP-KRAS4B is reported as “no binding”.
